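Living-cell ATP in ovarian and cervical tumor lines is read as light output two days after treatment, as a measure of cell killing.
Each compound was tested at five concentrations, including 0.46, 2.3 and 57.5 µM as the top dose.
The number is the fitted AC50 potency, and a lower value means stronger cell killing.
Calls follow an activity score built from curve class and fitted AC50: 40 to 100 is active, 1 to 39 is inconclusive, and 0 is inactive.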

Values are in µM.
All entries here are filed as inconclusive.
These entries are mostly ones the record files as inconclusive; other results of the assay are not listed here.
A potency from a partial, single-point or poor curve is only a rough figure.
Some entries filed as inconclusive have a full curve.
The first word of each remark tells which way the curve ran; it can be opposite to the aim of the assay.
Activity scores are not listed here.

{"compound": "C[C@@H]1CN(c2c(F)c(F)c3c(=O)c(C(=O)O)cn(C4CC4)c3c2F)C[C@H](C)N1", "tested on / at": "PA-1", "fitted potency (µM)": "0.7943"}
{"compound": "C[C@@H]1CN(c2c(F)c(F)c3c(=O)c(C(=O)O)cn(C4CC4)c3c2F)C[C@H](C)N1", "tested on / at": "SKOV3", "fitted potency (µM)": "1.778", "curve as filed": "rising, partial curve"}
{"compound": "COc1cc(C(=O)N2CCOCC2)cc(OC)c1OC", "tested on / at": "CAOV3", "fitted potency (µM)": "39.81", "curve as filed": "rising, single point"}
{"compound": "CCN(CC)CCc1c[nH]c2ccccc12", "tested on / at": "OV90", "fitted potency (µM)": "112.2", "curve as filed": "cytotoxic, single point"}
{"compound": "O=C(N[C@H]1N=C(c2ccccc2F)c2cccc3c2N(CC3)C1=O)c1cc2ccccc2[nH]1", "tested on / at": "C33A", "fitted potency (µM)": "39.81", "curve as filed": "rising, single point"}
{"compound": "CC1(C)CC[C@]2(C(=O)O[C@@H]3O[C@H](CO)[C@@H](O)[C@H](O)[C@H]3O)CC[C@]3(C)C(=CCC4[C@@]5(C)CC[C@H](OC6OC(C(=O)O)C(OC7OC(CO)C(O)C(O)C7O)C(O)C6O)C(C)(C)C5CC[C@]43C)C2C1", "stereo": "some centres unmarked", "tested on / at": "CAOV3", "fitted potency (µM)": "0.3162", "curve as filed": "cytotoxic, single point"}
{"compound": "O=C(O)CNC(=O)c1c(O)c2ccccc2n(Cc2ccccc2)c1=O", "tested on / at": "JEG-3", "fitted potency (µM)": "39.81", "curve as filed": "rising, single point"}
{"compound": "Cc1nnc2n1-c1sc(CCc3ccc(CC(C)C)cc3)cc1C(c1ccccc1Cl)=NC2C", "stereo": "centres unmarked", "tested on / at": "Es-2", "fitted potency (µM)": "25.12", "curve as filed": "cytotoxic, single point"}
{"compound": "Cc1nnc2n1-c1sc(CCc3ccc(CC(C)C)cc3)cc1C(c1ccccc1Cl)=NC2C", "stereo": "centres unmarked", "tested on / at": "C33A", "fitted potency (µM)": "19.95", "curve as filed": "cytotoxic, partial curve, poor fit"}
{"compound": "Cc1nnc2n1-c1sc(CCc3ccc(CC(C)C)cc3)cc1C(c1ccccc1Cl)=NC2C", "stereo": "centres unmarked", "tested on / at": "OV90", "fitted potency (µM)": "25.12", "curve as filed": "cytotoxic, partial curve"}
{"compound": "Cc1nnc2n1-c1sc(CCc3ccc(CC(C)C)cc3)cc1C(c1ccccc1Cl)=NC2C", "stereo": "centres unmarked", "tested on / at": "Hek293T; control line for the selectivity index", "fitted potency (µM)": "22.39", "curve as filed": "cytotoxic, single point"}
{"compound": "Cc1nnc2n1-c1sc(CCc3ccc(CC(C)C)cc3)cc1C(c1ccccc1Cl)=NC2C", "stereo": "centres unmarked", "tested on / at": "CAOV3", "fitted potency (µM)": "35.48", "curve as filed": "cytotoxic, single point"}
{"compound": "Cc1nnc2n1-c1sc(CCc3ccc(CC(C)C)cc3)cc1C(c1ccccc1Cl)=NC2C", "stereo": "centres unmarked", "tested on / at": "HeLa", "fitted potency (µM)": "1.995", "curve as filed": "cytotoxic, full curve"}
{"compound": "NC(=O)[C@@H]1CC[C@H](c2ccc(OCc3ccccc3F)cc2)N1", "tested on / at": "SKOV3", "fitted potency (µM)": "0.5012", "curve as filed": "rising, partial curve, poor fit"}
{"compound": "NC(=O)[C@@H]1CC[C@H](c2ccc(OCc3ccccc3F)cc2)N1", "tested on / at": "Tov-21-G", "fitted potency (µM)": "22.39", "curve as filed": "cytotoxic, single point"}
{"compound": "NC(=O)[C@@H]1CC[C@H](c2ccc(OCc3ccccc3F)cc2)N1", "tested on / at": "OV90", "fitted potency (µM)": "39.81", "curve as filed": "cytotoxic, single point"}
{"compound": "CC(C)N(CCCCOCC(=O)NS(C)(=O)=O)c1cnc(-c2ccccc2)c(-c2ccccc2)n1", "tested on / at": "SKOV3", "fitted potency (µM)": "3.162", "curve as filed": "rising, full curve, poor fit"}
{"compound": "O=c1[nH]c([C@@H]2CCCN2)nc2c1oc1ccc(Cl)cc12", "tested on / at": "HeLa", "fitted potency (µM)": "3.162", "curve as filed": "cytotoxic, full curve, poor fit"}
{"compound": "O=c1[nH]c([C@@H]2CCCN2)nc2c1oc1ccc(Cl)cc12", "tested on / at": "C33A", "fitted potency (µM)": "7.08", "curve as filed": "cytotoxic, partial curve"}
{"compound": "CN(C)C(=O)Oc1cccc([N+](C)(C)C)c1", "tested on / at": "CAOV3", "fitted potency (µM)": "1.413", "curve as filed": "cytotoxic, single point"}
{"compound": "CCCCOc1cc(C(=O)NCCN(CC)CC)c2ccccc2n1", "tested on / at": "Es-2", "fitted potency (µM)": "22.39", "curve as filed": "cytotoxic, single point"}
{"compound": "CCCCOc1cc(C(=O)NCCN(CC)CC)c2ccccc2n1", "tested on / at": "HeLa", "fitted potency (µM)": "31.62", "curve as filed": "cytotoxic, single point"}
{"compound": "CCCCOc1cc(C(=O)NCCN(CC)CC)c2ccccc2n1", "tested on / at": "CAOV3", "fitted potency (µM)": "39.81", "curve as filed": "cytotoxic, partial curve, poor fit"}
{"compound": "CCC(C)(CN(C)C)OC(=O)c1ccccc1", "stereo": "centres unmarked", "tested on / at": "CAOV3", "fitted potency (µM)": "8.912", "curve as filed": "rising, full curve, poor fit"}
{"compound": "Oc1c(Cl)cc(Cl)c2cccnc12", "tested on / at": "CAOV3", "fitted potency (µM)": "39.81", "curve as filed": "cytotoxic, single point"}
{"compound": "Oc1c(Cl)cc(Cl)c2cccnc12", "tested on / at": "C33A", "fitted potency (µM)": "39.81", "curve as filed": "cytotoxic, single point"}
{"compound": "C[C@H](N)[C@H](O)c1ccc(O)c(O)c1", "tested on / at": "Es-2", "fitted potency (µM)": "22.39", "curve as filed": "cytotoxic, partial curve, poor fit"}
{"compound": "C[C@H](N)[C@H](O)c1ccc(O)c(O)c1", "tested on / at": "OV90", "fitted potency (µM)": "19.95", "curve as filed": "cytotoxic, partial curve, poor fit"}
{"compound": "C[C@H](N)[C@H](O)c1ccc(O)c(O)c1", "tested on / at": "CAOV3", "fitted potency (µM)": "28.18", "curve as filed": "cytotoxic, single point"}
{"compound": "C[C@H](N)[C@H](O)c1ccc(O)c(O)c1", "tested on / at": "Hek293T; control line for the selectivity index", "fitted potency (µM)": "35.48", "curve as filed": "cytotoxic, single point"}
{"compound": "C[C@H](N)[C@H](O)c1ccc(O)c(O)c1", "tested on / at": "HeLa", "fitted potency (µM)": "15.85", "curve as filed": "cytotoxic, partial curve"}
{"compound": "CCC(CC)(CC(=O)Nc1cccc(/C=C/c2nc(C3CCC3)cs2)c1)C(=O)O", "tested on / at": "HeLa", "fitted potency (µM)": "10", "curve as filed": "cytotoxic, partial curve"}
{"compound": "CCC(CC)(CC(=O)Nc1cccc(/C=C/c2nc(C3CCC3)cs2)c1)C(=O)O", "tested on / at": "Es-2", "fitted potency (µM)": "22.39", "curve as filed": "cytotoxic, single point"}
{"compound": "CCC(CC)(CC(=O)Nc1cccc(/C=C/c2nc(C3CCC3)cs2)c1)C(=O)O", "tested on / at": "JEG-3", "fitted potency (µM)": "31.62", "curve as filed": "cytotoxic, single point"}
{"compound": "Cc1cccc(NC(=O)c2ccc(C(F)(F)F)cc2C(=O)O)n1", "tested on / at": "Hek293T; control line for the selectivity index", "fitted potency (µM)": "35.48", "curve as filed": "cytotoxic, single point"}

For reference, 2 entries once more:

| compound | tested on / at | fitted potency (µM) | curve as filed |
|---|---|---|---|
| `CCCCOc1cc(C(=O)NCCN(CC)CC)c2ccccc2n1` | HeLa | 31.62 | cytotoxic, single point |
| `CCC(CC)(CC(=O)Nc1cccc(/C=C/c2nc(C3CCC3)cs2)c1)C(=O)O` | Es-2 | 22.39 | cytotoxic, single point |

Data taken from PubChem BioAssay AID1345084, deposited by NCATS (2018).